No constants are given. Whether binding was seen depends on the method and setting. Some binding calls cover weakened binding; strength is not graded here.
Assays:
[1] = biological target: T1, Endogenous MEP50 of Xenopus egg extract (Xenopus laevis (endogenous in Xenopus egg extract)) (UniProt Q6NUD0); assay: immunodepletion; anti-MEP50 antibodies on protein A sepharose, two rounds of depletion of Xenopus egg extract (HSS); depleted extract blotted for PRMT5, MEP50 and H4; mock: pre-immune serum
T1 sequence: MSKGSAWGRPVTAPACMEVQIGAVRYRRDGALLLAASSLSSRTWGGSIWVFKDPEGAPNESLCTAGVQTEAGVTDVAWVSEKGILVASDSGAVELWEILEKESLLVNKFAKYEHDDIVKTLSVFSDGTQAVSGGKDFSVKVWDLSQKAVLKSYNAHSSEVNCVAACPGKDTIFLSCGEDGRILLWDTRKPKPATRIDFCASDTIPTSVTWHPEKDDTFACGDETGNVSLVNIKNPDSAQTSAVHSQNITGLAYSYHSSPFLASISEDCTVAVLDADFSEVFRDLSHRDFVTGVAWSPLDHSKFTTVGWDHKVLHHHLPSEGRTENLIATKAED

By UniProt entry, the sequences of proteins in these tests, tags left out.
UniProt Q6NUA1: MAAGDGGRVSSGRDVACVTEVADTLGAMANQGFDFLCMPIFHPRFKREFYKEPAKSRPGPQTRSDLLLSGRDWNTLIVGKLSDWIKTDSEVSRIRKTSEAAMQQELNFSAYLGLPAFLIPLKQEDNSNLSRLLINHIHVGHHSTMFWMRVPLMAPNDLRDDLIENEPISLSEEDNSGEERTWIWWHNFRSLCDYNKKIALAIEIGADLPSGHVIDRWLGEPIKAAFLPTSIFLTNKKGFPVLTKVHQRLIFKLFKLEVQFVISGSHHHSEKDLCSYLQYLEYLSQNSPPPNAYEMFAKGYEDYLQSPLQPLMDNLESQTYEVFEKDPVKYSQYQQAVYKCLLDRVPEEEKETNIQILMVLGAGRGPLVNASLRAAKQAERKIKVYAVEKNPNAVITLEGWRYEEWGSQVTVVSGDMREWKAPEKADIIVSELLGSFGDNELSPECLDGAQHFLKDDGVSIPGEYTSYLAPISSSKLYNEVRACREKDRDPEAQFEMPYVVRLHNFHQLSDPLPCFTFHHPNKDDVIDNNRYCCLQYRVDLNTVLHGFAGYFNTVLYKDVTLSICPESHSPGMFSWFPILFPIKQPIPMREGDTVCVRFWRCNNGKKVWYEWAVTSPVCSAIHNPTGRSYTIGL
UniProt P05221: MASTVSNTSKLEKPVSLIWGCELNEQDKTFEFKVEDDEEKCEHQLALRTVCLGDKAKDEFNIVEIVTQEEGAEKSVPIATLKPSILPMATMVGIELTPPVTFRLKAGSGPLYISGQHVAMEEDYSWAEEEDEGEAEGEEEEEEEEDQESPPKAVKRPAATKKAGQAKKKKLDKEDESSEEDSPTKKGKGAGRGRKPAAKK

[2] = biological target: T2, Xenopus laevis MEP50 (co-expressed with PRMT5) (Xenopus laevis) (UniProt Q6NUD0); assay: negative-stain electron microscopy and 3D reconstruction; PRMT5-MEP50 alone or with Npm at a molar ratio of 1:2; 2% uranyl acetate; class averages and reconstruction, crystal structure fitted; both purified
T2 sequence: T1 sequence

[3] = biological target: Xenopus laevis PRMT5-MEP50 complex (Xenopus laevis) (UniProt Q6NUA1+Q6NUD0); assay: as above

binding [1]	binding [2]	binding [3]	Substance
binds	–	–	Endogenous PRMT5 of Xenopus egg extract (from UniProt Q6NUA1 1-633) (enzyme)
–	binds	binds	Recombinant Nucleoplasmin (from UniProt P05221 1-200)

Source: publication PMC3581573
